Reference: article PMC11150407

The chains behind the UniProt entries cited, without tags or fusion partners. Where a name states a change or a piece, a line headed by the entry shows the natural chain unless it says otherwise.
UniProt Q03112: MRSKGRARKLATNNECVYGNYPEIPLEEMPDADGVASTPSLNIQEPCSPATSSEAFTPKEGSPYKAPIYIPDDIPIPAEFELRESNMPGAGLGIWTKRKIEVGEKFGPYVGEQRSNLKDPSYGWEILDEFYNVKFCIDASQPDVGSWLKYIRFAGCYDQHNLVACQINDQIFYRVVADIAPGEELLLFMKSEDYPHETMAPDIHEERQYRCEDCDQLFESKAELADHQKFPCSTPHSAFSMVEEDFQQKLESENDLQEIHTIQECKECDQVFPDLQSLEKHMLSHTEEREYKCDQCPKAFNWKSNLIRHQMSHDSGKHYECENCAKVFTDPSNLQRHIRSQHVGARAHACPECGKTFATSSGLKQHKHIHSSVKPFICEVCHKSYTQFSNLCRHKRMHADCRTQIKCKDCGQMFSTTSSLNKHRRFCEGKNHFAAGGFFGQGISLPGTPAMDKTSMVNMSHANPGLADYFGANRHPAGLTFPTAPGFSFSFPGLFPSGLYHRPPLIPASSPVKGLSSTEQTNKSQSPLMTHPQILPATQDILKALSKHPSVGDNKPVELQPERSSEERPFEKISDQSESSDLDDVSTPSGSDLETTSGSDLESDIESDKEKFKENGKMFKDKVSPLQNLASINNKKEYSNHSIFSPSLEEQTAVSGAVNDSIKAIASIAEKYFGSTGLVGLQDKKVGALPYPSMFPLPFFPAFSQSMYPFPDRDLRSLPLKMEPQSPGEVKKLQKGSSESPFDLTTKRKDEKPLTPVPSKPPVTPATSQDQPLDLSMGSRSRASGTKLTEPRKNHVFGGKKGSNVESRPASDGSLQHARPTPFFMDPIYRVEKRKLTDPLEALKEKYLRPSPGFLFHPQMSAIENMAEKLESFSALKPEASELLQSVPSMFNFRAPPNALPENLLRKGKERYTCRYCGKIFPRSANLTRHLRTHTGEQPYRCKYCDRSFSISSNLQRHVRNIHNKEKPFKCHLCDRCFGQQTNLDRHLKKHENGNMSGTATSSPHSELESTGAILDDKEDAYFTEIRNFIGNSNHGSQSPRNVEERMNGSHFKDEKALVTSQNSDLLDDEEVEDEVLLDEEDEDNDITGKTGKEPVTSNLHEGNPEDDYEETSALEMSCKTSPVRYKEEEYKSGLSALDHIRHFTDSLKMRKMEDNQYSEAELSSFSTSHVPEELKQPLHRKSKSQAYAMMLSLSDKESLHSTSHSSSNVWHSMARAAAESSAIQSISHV
UniProt Q7Z7K6: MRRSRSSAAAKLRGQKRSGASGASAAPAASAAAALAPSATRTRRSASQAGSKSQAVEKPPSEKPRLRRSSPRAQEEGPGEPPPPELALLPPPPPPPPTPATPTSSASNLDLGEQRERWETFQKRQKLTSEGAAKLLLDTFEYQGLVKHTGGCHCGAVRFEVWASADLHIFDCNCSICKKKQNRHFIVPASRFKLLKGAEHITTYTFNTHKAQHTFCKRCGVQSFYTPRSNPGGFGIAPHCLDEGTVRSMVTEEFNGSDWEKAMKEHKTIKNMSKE
UniProt P01106: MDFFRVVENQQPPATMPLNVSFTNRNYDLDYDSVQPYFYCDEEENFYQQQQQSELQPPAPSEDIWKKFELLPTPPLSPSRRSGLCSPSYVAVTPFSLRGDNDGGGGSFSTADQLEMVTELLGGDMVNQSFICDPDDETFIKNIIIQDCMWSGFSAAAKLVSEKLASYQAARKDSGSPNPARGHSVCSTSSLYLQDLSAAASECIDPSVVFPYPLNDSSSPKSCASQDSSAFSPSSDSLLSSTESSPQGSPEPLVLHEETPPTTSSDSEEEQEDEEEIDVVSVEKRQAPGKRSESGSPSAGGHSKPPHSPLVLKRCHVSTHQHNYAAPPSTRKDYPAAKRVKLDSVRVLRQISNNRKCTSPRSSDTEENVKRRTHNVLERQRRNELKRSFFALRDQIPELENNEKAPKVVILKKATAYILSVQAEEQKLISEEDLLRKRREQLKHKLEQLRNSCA
UniProt P11940: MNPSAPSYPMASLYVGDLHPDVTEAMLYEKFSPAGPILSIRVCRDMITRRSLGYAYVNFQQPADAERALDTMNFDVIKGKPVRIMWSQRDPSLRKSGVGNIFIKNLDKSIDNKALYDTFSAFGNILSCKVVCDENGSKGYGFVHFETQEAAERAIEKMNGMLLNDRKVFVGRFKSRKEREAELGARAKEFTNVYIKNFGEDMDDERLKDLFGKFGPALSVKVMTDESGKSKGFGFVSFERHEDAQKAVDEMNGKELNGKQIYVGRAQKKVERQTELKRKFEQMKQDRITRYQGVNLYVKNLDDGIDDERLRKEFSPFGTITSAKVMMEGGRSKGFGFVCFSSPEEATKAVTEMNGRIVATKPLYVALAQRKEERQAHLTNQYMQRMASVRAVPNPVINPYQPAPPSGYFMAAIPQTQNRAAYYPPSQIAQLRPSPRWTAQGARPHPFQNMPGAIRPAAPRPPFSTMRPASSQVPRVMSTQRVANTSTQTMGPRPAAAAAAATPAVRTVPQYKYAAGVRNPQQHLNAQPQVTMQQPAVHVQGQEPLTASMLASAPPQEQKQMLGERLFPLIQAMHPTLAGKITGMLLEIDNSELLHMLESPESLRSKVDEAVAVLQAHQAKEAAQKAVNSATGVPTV
UniProt P09874: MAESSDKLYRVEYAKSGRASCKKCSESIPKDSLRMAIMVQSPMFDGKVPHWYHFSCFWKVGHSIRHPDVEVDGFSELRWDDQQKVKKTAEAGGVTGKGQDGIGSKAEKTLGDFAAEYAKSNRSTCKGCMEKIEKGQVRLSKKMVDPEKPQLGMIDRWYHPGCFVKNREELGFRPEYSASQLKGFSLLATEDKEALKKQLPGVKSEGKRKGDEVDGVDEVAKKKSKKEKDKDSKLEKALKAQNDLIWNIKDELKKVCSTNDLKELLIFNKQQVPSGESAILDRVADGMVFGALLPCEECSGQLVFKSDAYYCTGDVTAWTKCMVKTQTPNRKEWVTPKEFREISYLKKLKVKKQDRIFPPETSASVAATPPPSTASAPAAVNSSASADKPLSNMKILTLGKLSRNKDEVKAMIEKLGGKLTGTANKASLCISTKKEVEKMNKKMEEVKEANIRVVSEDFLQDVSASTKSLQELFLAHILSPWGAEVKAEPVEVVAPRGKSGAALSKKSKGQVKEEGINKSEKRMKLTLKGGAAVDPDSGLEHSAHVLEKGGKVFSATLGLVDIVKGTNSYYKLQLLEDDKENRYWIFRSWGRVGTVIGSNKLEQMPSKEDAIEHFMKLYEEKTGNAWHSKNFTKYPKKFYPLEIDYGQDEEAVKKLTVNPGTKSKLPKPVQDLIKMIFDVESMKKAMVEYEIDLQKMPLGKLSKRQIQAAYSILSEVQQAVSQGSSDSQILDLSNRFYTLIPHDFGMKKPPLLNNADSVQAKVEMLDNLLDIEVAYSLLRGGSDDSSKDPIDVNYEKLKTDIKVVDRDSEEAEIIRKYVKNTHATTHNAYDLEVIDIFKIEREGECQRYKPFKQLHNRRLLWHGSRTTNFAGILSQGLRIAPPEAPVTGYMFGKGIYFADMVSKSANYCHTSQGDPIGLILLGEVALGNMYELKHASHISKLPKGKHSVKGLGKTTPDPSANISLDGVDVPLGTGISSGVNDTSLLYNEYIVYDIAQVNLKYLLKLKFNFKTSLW
UniProt Q7KZF4: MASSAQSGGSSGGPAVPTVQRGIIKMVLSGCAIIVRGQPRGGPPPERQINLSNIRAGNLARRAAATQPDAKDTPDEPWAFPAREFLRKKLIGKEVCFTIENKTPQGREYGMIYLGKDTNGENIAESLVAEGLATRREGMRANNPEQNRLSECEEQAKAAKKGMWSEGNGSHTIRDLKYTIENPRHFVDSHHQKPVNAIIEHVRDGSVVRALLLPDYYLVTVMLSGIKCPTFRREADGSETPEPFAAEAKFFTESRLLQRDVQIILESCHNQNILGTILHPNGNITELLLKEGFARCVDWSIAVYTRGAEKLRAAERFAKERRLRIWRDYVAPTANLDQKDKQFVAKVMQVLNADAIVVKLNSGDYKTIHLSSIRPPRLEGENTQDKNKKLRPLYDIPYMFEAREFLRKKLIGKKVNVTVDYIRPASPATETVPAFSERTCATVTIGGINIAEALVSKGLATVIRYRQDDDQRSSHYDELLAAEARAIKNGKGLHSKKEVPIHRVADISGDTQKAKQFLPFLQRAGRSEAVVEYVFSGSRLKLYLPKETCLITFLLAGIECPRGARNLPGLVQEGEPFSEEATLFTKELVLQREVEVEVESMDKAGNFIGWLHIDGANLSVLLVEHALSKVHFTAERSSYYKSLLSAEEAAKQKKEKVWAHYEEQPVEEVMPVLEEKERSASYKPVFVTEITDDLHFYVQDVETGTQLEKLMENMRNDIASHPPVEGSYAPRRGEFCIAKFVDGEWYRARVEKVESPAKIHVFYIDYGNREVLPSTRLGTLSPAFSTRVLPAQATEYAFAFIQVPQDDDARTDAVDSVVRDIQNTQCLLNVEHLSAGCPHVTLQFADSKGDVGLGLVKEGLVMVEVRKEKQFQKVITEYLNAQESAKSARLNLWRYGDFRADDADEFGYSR
UniProt P13010: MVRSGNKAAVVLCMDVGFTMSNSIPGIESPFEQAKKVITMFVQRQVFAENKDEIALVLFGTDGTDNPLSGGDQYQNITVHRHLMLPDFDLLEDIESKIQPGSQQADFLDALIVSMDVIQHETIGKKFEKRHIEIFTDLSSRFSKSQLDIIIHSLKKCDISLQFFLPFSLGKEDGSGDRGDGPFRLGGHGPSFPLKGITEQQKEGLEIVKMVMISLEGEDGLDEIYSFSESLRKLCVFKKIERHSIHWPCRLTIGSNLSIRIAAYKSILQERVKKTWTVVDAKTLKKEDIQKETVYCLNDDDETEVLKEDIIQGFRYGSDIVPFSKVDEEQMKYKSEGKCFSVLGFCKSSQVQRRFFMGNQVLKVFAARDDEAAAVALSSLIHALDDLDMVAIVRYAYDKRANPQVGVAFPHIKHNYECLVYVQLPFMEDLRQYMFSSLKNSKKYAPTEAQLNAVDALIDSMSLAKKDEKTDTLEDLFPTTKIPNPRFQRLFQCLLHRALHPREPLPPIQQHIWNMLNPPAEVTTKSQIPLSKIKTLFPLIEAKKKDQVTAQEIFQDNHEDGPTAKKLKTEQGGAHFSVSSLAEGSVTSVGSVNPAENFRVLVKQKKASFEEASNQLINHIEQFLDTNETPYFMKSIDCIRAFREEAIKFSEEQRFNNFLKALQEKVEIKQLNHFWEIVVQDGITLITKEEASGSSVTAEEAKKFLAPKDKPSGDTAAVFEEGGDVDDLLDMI
UniProt Q9NR30: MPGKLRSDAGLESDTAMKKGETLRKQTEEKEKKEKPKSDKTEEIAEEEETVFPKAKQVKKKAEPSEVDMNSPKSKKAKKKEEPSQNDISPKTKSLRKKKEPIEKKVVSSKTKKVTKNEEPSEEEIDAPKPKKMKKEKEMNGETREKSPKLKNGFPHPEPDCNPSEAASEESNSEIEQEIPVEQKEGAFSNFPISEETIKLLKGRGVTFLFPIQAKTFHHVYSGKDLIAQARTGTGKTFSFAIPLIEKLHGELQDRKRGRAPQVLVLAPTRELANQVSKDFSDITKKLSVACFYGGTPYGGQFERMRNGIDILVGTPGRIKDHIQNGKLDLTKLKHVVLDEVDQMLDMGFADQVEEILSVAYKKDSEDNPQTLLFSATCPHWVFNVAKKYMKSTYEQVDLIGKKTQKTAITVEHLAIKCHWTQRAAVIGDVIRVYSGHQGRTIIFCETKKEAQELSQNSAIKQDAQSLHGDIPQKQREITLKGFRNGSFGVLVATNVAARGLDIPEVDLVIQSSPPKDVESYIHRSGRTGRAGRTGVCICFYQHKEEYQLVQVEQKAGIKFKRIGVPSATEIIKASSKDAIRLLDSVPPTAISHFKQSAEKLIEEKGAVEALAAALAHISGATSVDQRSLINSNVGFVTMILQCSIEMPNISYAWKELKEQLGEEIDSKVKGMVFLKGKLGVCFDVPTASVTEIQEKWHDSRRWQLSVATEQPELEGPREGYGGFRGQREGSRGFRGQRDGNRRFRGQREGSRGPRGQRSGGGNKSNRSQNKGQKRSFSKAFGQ

Target: ecotropic viral integration site-1 (EVI1/MECOM) (human (endogenous in HNT34, UCSD/AML1 and PDLX_PR#003 cells)) (UniProt Q03112)
Experiment: affinity purification with mass spectrometry; RIME: chromatin of HNT34, UCSD/AML1 and PDLX_PR#003 cells fixed with 1% formaldehyde for 8 min, sonicated; 150 ug chromatin immunoprecipitated with 15 ug anti-EVI1 (Cell Signaling #2593) on protein G magnetic beads; on-bead trypsin, LC-MS/MS; hits against IgG control, spectral count of five and above

| Molecule | binding |
| --- | --- |
| CENPV (from UniProt Q7Z7K6 1-275) | binds |
| MYC (from UniProt P01106 1-454) | no binding |
| PABPC1 (from UniProt P11940 1-636) | binds |
| PARP1 (from UniProt P09874 1-1014) | binds |
| SND1 (from UniProt Q7KZF4 1-910) | binds |
| XRCC5 (from UniProt P13010 1-732) | binds |
| nucleolar RNA helicase 2 (from UniProt Q9NR30 1-783) | binds |
| proliferation-associated 2G4 (PA2G4) protein (protein, UniProt Q9UQ80 1-394) MSGEDEQQEQTIAEDLVVTKYKMGGDIANRVLRSLVEASSSGVSVLSLCEKGDAMIMEETGKIFKKEKEMKKGIAFPTSISVNNCVCHFSPLKSDQDYILKEGDLVKIDLGVHVDGFIANVAHTFVVDVAQGTQVTGRKADVIKAAHLCAEAALRLVKPGNQNTQVTEAWNKVAHSFNCTPIEGMLSHQLKQHVIDGEKTIIQNPTDQQKKDHEKAEFEVHEVYAVDVLVSSGEGKAKDAGQRTTIYKRDPSKQYGLKMKTSRAFFSEVERRFDAMPFTLRAFEDEKKARMGVVECAKHELLQPFNVLYEKEGEFVAQFKFTVLLMPNGPMRITSGPFEPDLYKSEMEVQDAELKALLQSSASRKTQKKKKKKASKTAENATSGETLEENEAGD | binds |
| RPN1 (protein, UniProt P04843 24-607) ASSEAPPLINEDVKRTVDLSSHLAKVTAEVVLAHLGGGSTSRATSFLLALEPELEARLAHLGVQVKGEDEEENNLEVRETKIKGKSGRFFTVKLPVALDPGAKISVIVETVYTHVLHPYPTQITQSEKQFVVFEGNHYFYSPYPTKTQTMRVKLASRNVESYTKLGNPTRSEDLLDYGPFRDVPAYSQDTFKVHYENNSPFLTITSMTRVIEVSHWGNIAVEENVDLKHTGAVLKGPFSRYDYQRQPDSGISSIRSFKTILPAAAQDVYYRDEIGNVSTSHLLILDDSVEMEIRPRFPLFGGWKTHYIVGYNLPSYEYLYNLGDQYALKMRFVDHVFDEQVIDSLTVKIILPEGAKNIEIDSPYEISRAPDELHYTYLDTFGRPVIVAYKKNLVEQHIQDIVVHYTFNKVLMLQEPLLVVAAFYILFFTVIIYVRLDFSITKDPAAEARMKVACITEQVLTLVNKRIGLYRHFDETVNRYKQSRDISTLNSGKKSLETEHKALTSEIALLQSRLKTEGSDLCDRVSEMQKLDAQVKELVLKSAVEAERLVAGKLKKDTYIENEKLISGKRQELVTKIDHILDAL | binds |
| Fibrillarin (protein, UniProt P22087 1-321) MKPGFSPRGGGFGGRGGFGDRGGRGGRGGFGGGRGRGGGFRGRGRGGGGGGGGGGGGGRGGGGFHSGGNRGRGRGGKRGNQSGKNVMVEPHRHEGVFICRGKEDALVTKNLVPGESVYGEKRVSISEGDDKIEYRAWNPFRSKLAAAILGGVDQIHIKPGAKVLYLGAASGTTVSHVSDIVGPDGLVYAVEFSHRSGRDLINLAKKRTNIIPVIEDARHPHKYRMLIAMVDVIFADVAQPDQTRIVALNAHTFLRNGGHFVISIKANCIDSTASAEAVFASEVKKMQQENMKPQEQLTLEPYERDHAVVVGVYRPPPKVKN | binds |
| ESYT1 (protein, UniProt Q9BSJ8 1-1104) MERSPGEGPSPSPMDQPSAPSDPTDQPPAAHAKPDPGSGGQPAGPGAAGEALAVLTSFGRRLLVLIPVYLAGAVGLSVGFVLFGLALYLGWRRVRDEKERSLRAARQLLDDEEQLTAKTLYMSHRELPAWVSFPDVEKAEWLNKIVAQVWPFLGQYMEKLLAETVAPAVRGSNPHLQTFTFTRVELGEKPLRIIGVKVHPGQRKEQILLDLNISYVGDVQIDVEVKKYFCKAGVKGMQLHGVLRVILEPLIGDLPFVGAVSMFFIRRPTLDINWTGMTNLLDIPGLSSLSDTMIMDSIAAFLVLPNRLLVPLVPDLQDVAQLRSPLPRGIIRIHLLAARGLSSKDKYVKGLIEGKSDPYALVRLGTQTFCSRVIDEELNPQWGETYEVMVHEVPGQEIEVEVFDKDPDKDDFLGRMKLDVGKVLQASVLDDWFPLQGGQGQVHLRLEWLSLLSDAEKLEQVLQWNWGVSSRPDPPSAAILVVYLDRAQDLPLKKGNKEPNPMVQLSIQDVTQESKAVYSTNCPVWEEAFRFFLQDPQSQELDVQVKDDSRALTLGALTLPLARLLTAPELILDQWFQLSSSGPNSRLYMKLVMRILYLDSSEICFPTVPGCPGAWDVDSENPQRGSSVDAPPRPCHTTPDSQFGTEHVLRIHVLEAQDLIAKDRFLGGLVKGKSDPYVKLKLAGRSFRSHVVREDLNPRWNEVFEVIVTSVPGQELEVEVFDKDLDKDDFLGRCKVRLTTVLNSGFLDEWLTLEDVPSGRLHLRLERLTPRPTAAELEEVLQVNSLIQTQKSAELAAALLSIYMERAEDLPLRKGTKHLSPYATLTVGDSSHKTKTISQTSAPVWDESASFLIRKPHTESLELQVRGEGTGVLGSLSLPLSELLVADQLCLDRWFTLSSGQGQVLLRAQLGILVSQHSGVEAHSHSYSHSSSSLSEEPELSGGPPHITSSAPELRQRLTHVDSPLEAPAGPLGQVKLTLWYYSEERKLVSIVHGCRSLRQNGRDPPDPYVSLLLLPDKNRGTKRRTSQKKRTLSPEFNERFEWELPLDEAQRRKLDVSVKSNSSFMSRERELLGKVQLDLAETDLSQGVARWYDLMDNKDKGSS | binds |
| MTDH (protein, UniProt Q86UE4 1-582) MAARSWQDELAQQAEEGSARLREMLSVGLGFLRTELGLDLGLEPKRYPGWVILVGTGALGLLLLFLLGYGWAAACAGARKKRRSPPRKREEAAAVPAAAPDDLALLKNLRSEEQKKKNRKKLSEKPKPNGRTVEVAEGEAVRTPQSVTAKQPPEIDKKNEKSKKNKKKSKSDAKAVQNSSRHDGKEVDEGAWETKISHREKRQQRKRDKVLTDSGSLDSTIPGIENTITVTTEQLTTASFPVGSKKNKGDSHLNVQVSNFKSGKGDSTLQVSSGLNENLTVNGGGWNEKSVKLSSQISAGEEKWNSVSPASAGKRKTEPSAWSQDTGDANTNGKDWGRSWSDRSIFSGIGSTAEPVSQSTTSDYQWDVSRNQPYIDDEWSGLNGLSSADPNSDWNAPAEEWGNWVDEERASLLKSQEPIPDDQKVSDDDKEKGEGALPTGKSKKKKKKKKKQGEDNSTAQDTEELEKEIREDLPVNTSKTRPKQEKAFSLKTISTSDPAEVLVKNSQPIKTLPPATSTEPSVILSKSDSDKSSSQVPPILQETDKSKSNTKQNSVPPSQTKSETSWESPKQIKKKKKARRET | binds |

These are yes or no findings as the source states them, for the method shown. In cells and extracts the contact can be indirect. Here binding means that the protein was enriched with, or labelled near, the bait; the list need not be complete. A no says only that the protein was not detected with the bait.
